Earlier results in patent US11771779B2, “Non-metallic magnetic resonance contrast agent” (HADASIT MEDICAL RESEARCH SERVICES & DEVELOPMENT LIMITED, priority 2018, dated 2023).
At least one compound was matched to its structure with a doubt left.

Details: cited from earlier work

N[13C](N)=O [carbon-13 labeled urea, reference compound]
T1 in solution: ≈ 40 s
